# Screening data, single-dose tests

Values are the deposited “Percent Effect”, in %. The record does not define 0% and 100%; most values in the screen are far below 50% and negative numbers occur (in some assays of this library far below -100). Compounds were drawn at random from those tested, without regard to their results. Two or more numbers in one place are separate tests of the same structure; such repeats can differ widely.

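Phenotypic screen: M. tuberculosis growth, glucose 7H9 medium, 3 days; the read-out is not stated. Compounds at 50 µM. Direction is inferred from retests: higher values go with more growth inhibition. Size under these conditions: about 69,000 compounds, about 760 of them at 50% or above in at least one test.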

structure | effect
O=C1NCCCC1NC(=O)C1(c2cccc(Cl)c2)CCC1 (centres unmarked) | -3.287%
[H][C@]12CC[C@]([H])(CN(c3ncccn3)C1)N(C(=O)Cn1ccnc1CC)C2 | 7.382%
Cc1cc(NC(=O)NCc2nccn2C)ccc1OC(C)C | -6.148%
[H][C@]12CCC[C@@]1(COCc1ccccn1)CN(C(=O)c1cscn1)C2 | -8.079%
CCc1cc(NC2CCS(=O)(=O)C2)nc(N2CCCCC2)n1 (centres unmarked) | 15.03%
N#Cc1cccc(C(=O)N2C[C@H](CO)C[C@H](CN3CCCC3)C2)c1 | -0.6321% and -1.251%
CC1(C)CCC(CC(=O)O)c2ccccc21 (centres unmarked) | -4.638%
NC(=O)Nc1cccc(F)c1C(=O)NC1CCCC1 | -10.14%
O=C(CCSc1ccccc1)NS(=O)(=O)c1ccc2c(c1)OCCO2 | 13.34%
Cn1cnc2c1CCN(Cc1csc(-c3ccccc3)n1)C2 | -6.514%
COc1ccc(Cc2cccc(C3CCN(C)CC3)n2)cc1 | 17.84%
CCc1nnc(SCc2cc(=O)n3c4c(sc3n2)CCCC4)[nH]1 | 10.62%
CCCc1nn(C2CCN(C(C)C)C2=O)c(=O)o1 (centres unmarked) | -26.86%
CC(=O)c1c(C)cc(C)c(CS(=O)(=O)c2nccn2C)c1C | 3.179% and 8.721%
O=C(O)C(F)(F)F.[H][C@@]12CCN(Cc3ccoc3)C[C@]1([H])O[C@H](C(=O)NC1CC1)C2 | 13.78%
CC(C)c1cc(NC(=O)CNC2CCCN(c3cccnn3)C2)on1 (centres unmarked) | 30.43%
CN1CCc2[nH]nc(C(=O)N3CCC4(CN(C)C(=O)O4)C3)c2C1 (centres unmarked) | 12.42%
COc1ccc(C)cc1CC(=O)N1CC[C@@]2(CCCO2)[C@@H](O)C1 | 27.64%
O=C(CN1CCN(C(=O)c2ccccc2)CC1)Nc1ccc(Br)cn1 | 1.086% and -1.844%
Cc1nc(C)n(CC2CN(CC(=O)Nc3nccs3)CCO2)n1 (centres unmarked) | 10.38% and -3.857%
CC(C)N(CC(C)(C)O)C(=O)NC1CC1 | -22.99% and 8.721%
CC(C)N1CCC2(CC1)CC(c1cccnc1)C(=O)N2 (centres unmarked) | -8.194%
COc1ccc(-c2ccnc3nc(N4CCCC4)[nH]c(=O)c23)cc1OC | 11.01%
O=C(NCCn1cnnc1C1CC1)c1c(O)cc(F)cc1F | -9.386%
COc1ccccc1-c1cc(C(=O)N(C)C)c2cnn(C)c2n1 | 0.7137%
Cc1cc(C(=O)N2CCN(c3ncc4c(n3)CCOC4)CC2)sc1C | 18.99%
CCOCCN1CCN([C@@H]2c3ccccc3C3(CCNCC3)[C@H]2O)CC1 | -20.62%
COCCC(C)NS(=O)(=O)c1ccc(C)c(N(C)C)c1 (centres unmarked) | 1.465%
Cc1c[nH]c(C2CCCN(Cc3cccc(C(=O)O)c3)C2)n1 (centres unmarked) | 21.38%
COc1cc(CNC(=O)NCCCF)cc(Br)c1OC | 7.287%
[H][C@@]12CN(Cc3cccc(OC4CCCC4)c3)C[C@]1(C(=O)O)CNC2=O | -3.783%
O=C(O)C(F)(F)F.[H][C@]12CCN(c3ncccn3)CC[C@@]1([H])S(=O)(=O)N(CC(C)C)C2 | 15.64%
CCC(C)(C)NC(=O)Nc1nnc(-c2ccccn2)s1 | 20.22%
COc1ccc(C2CCCN2c2ccnc(C)c2Cl)c(OC)c1 (centres unmarked) | 5.765%
COCCNC(=O)CNC(=O)c1nc(Cc2c(Cl)cccc2Cl)no1 | -1.153% and -10.78%
NC(=O)NC(=O)CN1CCN(c2nccs2)CC1 | 15.63%
O=C1CCNc2cc3c(cc2CN1CC1CC1)OCO3 | 19.08%
CN(CC(=O)NC(Cc1ccsc1)c1cccnc1)Cc1cccnc1.Cl (centres unmarked) | 3.141%
COC1CCN(C(=O)c2ccc3ncsc3c2)CC1 | -6.546%
C[S+]([O-])CCCNC(=O)c1cc(Br)c2c(c1)OCCO2 (centres unmarked) | 8.124%
[H][C@]12CC[C@]([H])(CN(C(=O)c3ccccc3)C1)N(C(=O)OC(C)C)C2 | -13.37%
CCc1nc(NC(=O)NCCc2scnc2C)nn1C | -35.3%
CCCC(=O)NCCc1cc(N2CCN(C(C)=O)CC2)nc(C2CC2)n1 | 16.04%
O=C(O)C(F)(F)F.O=C(O)C(F)(F)F.[H][C@]12CCC[C@@]1(COc1ccccn1)CN(c1ncc(F)cn1)C2 | -1.035%
Cc1cnn(C2CCCN(C(=O)c3c(C)oc(C)c3C)C2)c1 (centres unmarked) | -8.449%
O=C(O)C(F)(F)F.[H][C@@]12CN(Cc3ccsc3)C[C@]1([H])OCCN2c1ccnc(N(C)C)n1 | 31.66%
Nc1ncc(CN2CCC(O)(c3ccccc3F)CC2)cn1 | 0.4449%
CCc1ncnc2c1CCN(C(=O)c1ccccn1)CC2.O=C(O)C(F)(F)F | -11.9%
O=C(O)C(F)(F)F.O=C(O)C(F)(F)F.O=C(O)C(F)(F)F.[H][C@@]12COC[C@]1(COc1ccccn1)CN(Cc1cccnc1OC)C2 | 13.47%
Cc1oc(-c2ccsc2)nc1CN1CCCC(c2ccnn2C)C1 (centres unmarked) | -1.689%
OCCN1CCC(CNCc2ccc(N3CCCCC3)cc2)CC1 | 15.57%
CCCN(C)CC1CCN(c2ncc(Br)cn2)C1 (centres unmarked) | -10.76% and -1.71%
O=C(Nc1cccnc1)c1ccc(-n2cncn2)nn1 | 32.62% and -1.766%
Cc1c[nH]c(CN(C)C(=O)C2CC(=O)N(Cc3ccncc3)C2)n1 (centres unmarked) | -24.11%
CC(Cn1cccn1)NC(=O)Nc1nnc(C2CC2)s1 (centres unmarked) | -15.47%
CC(C)c1nn(C)c(N2CCOCC2)c1CNCCS(C)(=O)=O | -9.903%
Cc1nn(C)c(N(C)C)c1CNCc1ccnc(N2CCCC2)c1 | 3.049%
COCCNc1nc(C2CCCC2)nc2c1CCNCC2 | 23.39%
c1cn(-c2ccc(N3CCC(NC4CC4)CC3)cc2)cn1 | 11.14%
O=C(NCCc1ccn(-c2ccc(F)cc2)n1)C1CCCO1 (centres unmarked) | -29.86%

The last 6 entries again:

structure,effect
CC(Cn1cccn1)NC(=O)Nc1nnc(C2CC2)s1 (centres unmarked),-15.47%
CC(C)c1nn(C)c(N2CCOCC2)c1CNCCS(C)(=O)=O,-9.903%
Cc1nn(C)c(N(C)C)c1CNCc1ccnc(N2CCCC2)c1,3.049%
COCCNc1nc(C2CCCC2)nc2c1CCNCC2,23.39%
c1cn(-c2ccc(N3CCC(NC4CC4)CC3)cc2)cn1,11.14%
O=C(NCCc1ccn(-c2ccc(F)cc2)n1)C1CCCO1 (centres unmarked),-29.86%

From ChEMBL document CHEMBL3988442, “University of Dundee, Small-Polar-MMV Screening Library” (2021).